Measured values from PMC6082843.
Results are given in words; binding and its absence hold for the method and conditions named. In cells and extracts the contact can be indirect. Binding calls can cover weak binding; strength is not graded here.

Sequences of proteins named here, by UniProt entry; tags and fusion partners are left off. A change or cut given only in a name is not applied to a line headed by its entry.
UniProt Q9UNH5: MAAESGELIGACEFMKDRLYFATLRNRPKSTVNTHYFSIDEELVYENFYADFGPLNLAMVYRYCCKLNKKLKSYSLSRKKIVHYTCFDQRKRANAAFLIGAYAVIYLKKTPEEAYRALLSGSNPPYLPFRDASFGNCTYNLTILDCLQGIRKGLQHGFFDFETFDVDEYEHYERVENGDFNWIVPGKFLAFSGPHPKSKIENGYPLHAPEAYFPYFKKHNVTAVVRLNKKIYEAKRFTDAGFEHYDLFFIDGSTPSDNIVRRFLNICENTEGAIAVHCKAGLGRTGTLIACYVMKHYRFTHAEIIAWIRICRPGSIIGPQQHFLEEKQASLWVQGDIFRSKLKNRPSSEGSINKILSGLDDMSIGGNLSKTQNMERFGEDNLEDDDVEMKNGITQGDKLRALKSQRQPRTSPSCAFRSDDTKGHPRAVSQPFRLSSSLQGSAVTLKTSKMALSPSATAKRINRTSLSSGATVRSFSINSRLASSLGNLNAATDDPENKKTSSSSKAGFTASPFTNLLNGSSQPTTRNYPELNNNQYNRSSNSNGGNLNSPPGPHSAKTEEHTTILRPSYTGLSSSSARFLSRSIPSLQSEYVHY
UniProt Q9UM11: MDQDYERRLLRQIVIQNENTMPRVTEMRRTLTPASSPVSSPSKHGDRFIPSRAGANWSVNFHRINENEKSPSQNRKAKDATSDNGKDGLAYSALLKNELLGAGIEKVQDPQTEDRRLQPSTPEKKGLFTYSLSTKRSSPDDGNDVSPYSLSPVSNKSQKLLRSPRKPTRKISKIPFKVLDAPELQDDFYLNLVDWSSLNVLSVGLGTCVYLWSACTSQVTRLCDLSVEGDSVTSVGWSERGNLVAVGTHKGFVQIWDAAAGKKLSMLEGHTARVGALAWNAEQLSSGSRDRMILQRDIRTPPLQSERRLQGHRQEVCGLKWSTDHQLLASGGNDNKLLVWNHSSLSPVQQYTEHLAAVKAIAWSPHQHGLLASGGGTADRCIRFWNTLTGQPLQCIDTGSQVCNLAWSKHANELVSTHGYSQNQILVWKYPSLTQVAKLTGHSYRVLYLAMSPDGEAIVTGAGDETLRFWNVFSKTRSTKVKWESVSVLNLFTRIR

Experiments:
[1] = target: Cdc14A(PD)−3A (human) (UniProt Q9UNH5); assay: co-IP; co-immunoprecipitation from cellular mitotic extracts (Supplementary Figure S8)
[2] = target: Cdc14A(PD) (human) (UniProt Q9UNH5); assay: as above

binding [1]: binds | binding [2]: binds
Substance: Cdh1, the activator of APC/C (from UniProt Q9UM11 1-496)
